In the supplement of paper PMC8728848:
The list shows a part of the results.

Columns and labels:
Experiment in all cases: glycan array binding signal (z-score within array); higher = stronger binding
Conditions in all cases: glycan notation: IUPAC condensed, linker removed
[1] = biological target: Kdn(a2-3)Gal(b1-4)[Fuc(a1-3)]GlcNAc
Outline: (§1)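 From the Consortium for Functional Glycomics database, 3228 arrays were curated, keeping only those whose protein sequence was available. Binding is given as a within-array Z-score averaged across arrays sharing a protein sequence and across linkers. Negative Z-scores can be read as non-binding.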

Kdn(a2-6)Gal(b1-4)GlcNAc = biological target: Kdn(a2-6)Gal(b1-4)GlcNAc
Outline: as §1

[2] = biological target: Man(a1-2)Man(a1-2)Man(a1-3)Man
Outline: as §1

[3] = biological target: Man(a1-2)Man(a1-2)Man(a1-6)[Man(a1-3)]Man
Outline: as §1

Man(a1-2)Man(a1-3)Man = biological target: Man(a1-2)Man(a1-3)Man
Outline: as §1

[4] = biological target: Man(a1-2)Man(a1-3)[Man(a1-2)Man(a1-6)]Man
Outline: as §1

[5] = biological target: Man(a1-2)Man(a1-3)[Man(a1-2)Man(a1-6)]Man(a1-6)[Man(a1-2)Man(a1-2)Man(a1-3)]Man
Outline: as §1

[6] = biological target: Man(a1-2)Man(a1-3)[Man(a1-2)Man(a1-6)]Man(a1-6)[Man(a1-2)Man(a1-2)Man(a1-3)]Man(b1-4)GlcNAc(b1-4)GlcNAc
Outline: as §1

[7] = biological target: Man(a1-2)Man(a1-3)[Man(a1-6)]Man(a1-6)[Man(a1-2)Man(a1-3)]Man(b1-4)GlcNAc(b1-4)GlcNAc
Outline: as §1

[8] = biological target: Man(a1-2)Man(a1-6)[Man(a1-3)]Man(a1-6)[Man(a1-2)Man(a1-2)Man(a1-3)]Man
Outline: as §1

[9] = biological target: Man(a1-2)Man(a1-6)[Man(a1-3)]Man(a1-6)[Man(a1-2)Man(a1-2)Man(a1-3)]Man(b1-4)GlcNAc(b1-4)GlcNAc
Outline: as §1

Man(a1-3)[Man(a1-6)]Man = biological target: Man(a1-3)[Man(a1-6)]Man
Outline: as §1

[10] = biological target: Man(a1-3)[Man(a1-6)]Man(a1-6)[Man(a1-2)Man(a1-3)]Man(b1-4)GlcNAc(b1-4)GlcNAc
Outline: as §1

[11] = biological target: Man(a1-3)[Man(a1-6)]Man(a1-6)[Man(a1-3)]Man
Outline: as §1

[12] = biological target: Man(a1-3)[Man(a1-6)]Man(a1-6)[Man(a1-3)]Man(b1-4)GlcNAc(b1-4)GlcNAc
Outline: as §1

[13] = biological target: Man(a1-3)[Man(a1-6)]Man(b1-4)GlcNAc(b1-4)GlcNAc
Outline: as §1

Man(a1-6)Man = biological target: Man(a1-6)Man
Outline: as §1

Man(b1-4)GlcNAc = biological target: Man(b1-4)GlcNAc
Outline: as §1

Neu5Ac(a2-3)Gal = biological target: Neu5Ac(a2-3)Gal
Outline: as §1

[14] = biological target: Neu5Ac(a2-3)Gal(b1-3)GalNAc
Outline: as §1

[15] = biological target: Neu5Ac(a2-3)Gal(b1-3)GalNAc(b1-3)Gal(a1-4)Gal(b1-4)Glc
Outline: as §1

[16] = biological target: Neu5Ac(a2-3)Gal(b1-3)GalNAc(b1-4)[Neu5Ac(a2-3)]Gal(b1-4)Glc
Outline: as §1

[17] = biological target: Neu5Ac(a2-3)Gal(b1-3)GalNAc6S
Outline: as §1

[18] = biological target: Neu5Ac(a2-3)Gal(b1-3)GlcNAc
Outline: as §1

[19] = biological target: Neu5Ac(a2-3)Gal(b1-3)GlcNAc(b1-2)Man(a1-3)[Neu5Ac(a2-3)Gal(b1-3)GlcNAc(b1-2)Man(a1-6)]Man(b1-4)GlcNAc(b1-4)GlcNAc
Outline: as §1

[20] = biological target: Neu5Ac(a2-3)Gal(b1-3)GlcNAc(b1-3)Gal(b1-3)GlcNAc
Outline: as §1

[21] = biological target: Neu5Ac(a2-3)Gal(b1-3)GlcNAc(b1-3)Gal(b1-4)GlcNAc
Outline: as §1

[22] = biological target: Neu5Ac(a2-3)Gal(b1-3)GlcNAc(b1-3)GalNAc
Outline: as §1

[23] = biological target: Neu5Ac(a2-3)Gal(b1-3)GlcNAc6S
Outline: as §1

[24] = biological target: Neu5Ac(a2-3)Gal(b1-3)[Fuc(a1-4)]GlcNAc
Outline: as §1

[25] = biological target: Neu5Ac(a2-3)Gal(b1-3)[Fuc(a1-4)]GlcNAc(b1-3)Gal(b1-3)[Fuc(a1-4)]GlcNAc
Outline: as §1

[26] = biological target: Neu5Ac(a2-3)Gal(b1-3)[Fuc(a1-4)]GlcNAc(b1-3)Gal(b1-4)[Fuc(a1-3)]GlcNAc
Outline: as §1

[27] = biological target: Neu5Ac(a2-3)Gal(b1-3)[Neu5Ac(a2-3)Gal(b1-4)]GlcNAc
Outline: as §1

[28] = biological target: Neu5Ac(a2-3)Gal(b1-3)[Neu5Ac(a2-6)]GalNAc
Outline: as §1

Neu5Ac(a2-3)Gal(b1-4)Glc = biological target: Neu5Ac(a2-3)Gal(b1-4)Glc
Outline: as §1

B1: AcfC (Vibrio cholerae), Q57410 (protein)
chain: MKSKNRFLLISLLSFSTSVFADVNLYGPGGPHVPLIKVAESFEKSQSKRVNITFGPQATWNDKAKKNADILFGASEHSALAIAEGHSERFSKFNIHPVFMREAIILVKKGNPKNIKGMADLLKPGIGIVVNDGAGVSNTSGTAVWEDSVGRMKNVEKLQAFRSNIHVFAPNSGSARKAFVDGEDIDAWITWVDWAIANPTIGDMVRMEDEYRIYRDFNVVLAKNPSSEAIDFFDYLTKSKDAEAIFQHYGWFK
glycan array binding signal (z-score) [1]: -0.465 | glycan array binding signal (z-score) (Kdn(a2-6)Gal(b1-4)GlcNAc): -0.748 | glycan array binding signal (z-score) [2]: -0.13 | glycan array binding signal (z-score) [3]: -0.753 | glycan array binding signal (z-score) (Man(a1-2)Man(a1-3)Man): -0.096 | glycan array binding signal (z-score) [4]: -0.337 | glycan array binding signal (z-score) [5]: -0.506 | glycan array binding signal (z-score) [6]: 0.074 | glycan array binding signal (z-score) [7]: -0.459 | glycan array binding signal (z-score) [8]: -0.222 | glycan array binding signal (z-score) [9]: -0.097 | glycan array binding signal (z-score) (Man(a1-3)[Man(a1-6)]Man): -0.136 | glycan array binding signal (z-score) [10]: -1.02 | glycan array binding signal (z-score) [11]: 0.134 | glycan array binding signal (z-score) [12]: -0.511 | glycan array binding signal (z-score) [13]: 0.521 | glycan array binding signal (z-score) (Man(a1-6)Man): -1.06 | glycan array binding signal (z-score) (Man(b1-4)GlcNAc): 0.11 | glycan array binding signal (z-score) (Neu5Ac(a2-3)Gal): -0.174 | glycan array binding signal (z-score) [14]: 0.1 | glycan array binding signal (z-score) [15]: -0.717 | glycan array binding signal (z-score) [16]: 0.14 | glycan array binding signal (z-score) [17]: 0.717 | glycan array binding signal (z-score) [18]: 0.153 | glycan array binding signal (z-score) [19]: -1.19 | glycan array binding signal (z-score) [20]: 0.612 | glycan array binding signal (z-score) [21]: 0.502 | glycan array binding signal (z-score) [22]: -1.13 | glycan array binding signal (z-score) [23]: -0.326 | glycan array binding signal (z-score) [24]: -0.296 | glycan array binding signal (z-score) [25]: 0.566 | glycan array binding signal (z-score) [26]: 0.2 | glycan array binding signal (z-score) [27]: 0.1 | glycan array binding signal (z-score) [28]: 1.01 | glycan array binding signal (z-score) (Neu5Ac(a2-3)Gal(b1-4)Glc): -0.649
